From the supplement of paper PMC10849652
The other results are listed elsewhere or left out.

Chains of the proteins cited; added tags and fusions are not shown. Lines headed by an entry give the natural chain unless they say otherwise; changes in a name come on top.
UniProt P29144: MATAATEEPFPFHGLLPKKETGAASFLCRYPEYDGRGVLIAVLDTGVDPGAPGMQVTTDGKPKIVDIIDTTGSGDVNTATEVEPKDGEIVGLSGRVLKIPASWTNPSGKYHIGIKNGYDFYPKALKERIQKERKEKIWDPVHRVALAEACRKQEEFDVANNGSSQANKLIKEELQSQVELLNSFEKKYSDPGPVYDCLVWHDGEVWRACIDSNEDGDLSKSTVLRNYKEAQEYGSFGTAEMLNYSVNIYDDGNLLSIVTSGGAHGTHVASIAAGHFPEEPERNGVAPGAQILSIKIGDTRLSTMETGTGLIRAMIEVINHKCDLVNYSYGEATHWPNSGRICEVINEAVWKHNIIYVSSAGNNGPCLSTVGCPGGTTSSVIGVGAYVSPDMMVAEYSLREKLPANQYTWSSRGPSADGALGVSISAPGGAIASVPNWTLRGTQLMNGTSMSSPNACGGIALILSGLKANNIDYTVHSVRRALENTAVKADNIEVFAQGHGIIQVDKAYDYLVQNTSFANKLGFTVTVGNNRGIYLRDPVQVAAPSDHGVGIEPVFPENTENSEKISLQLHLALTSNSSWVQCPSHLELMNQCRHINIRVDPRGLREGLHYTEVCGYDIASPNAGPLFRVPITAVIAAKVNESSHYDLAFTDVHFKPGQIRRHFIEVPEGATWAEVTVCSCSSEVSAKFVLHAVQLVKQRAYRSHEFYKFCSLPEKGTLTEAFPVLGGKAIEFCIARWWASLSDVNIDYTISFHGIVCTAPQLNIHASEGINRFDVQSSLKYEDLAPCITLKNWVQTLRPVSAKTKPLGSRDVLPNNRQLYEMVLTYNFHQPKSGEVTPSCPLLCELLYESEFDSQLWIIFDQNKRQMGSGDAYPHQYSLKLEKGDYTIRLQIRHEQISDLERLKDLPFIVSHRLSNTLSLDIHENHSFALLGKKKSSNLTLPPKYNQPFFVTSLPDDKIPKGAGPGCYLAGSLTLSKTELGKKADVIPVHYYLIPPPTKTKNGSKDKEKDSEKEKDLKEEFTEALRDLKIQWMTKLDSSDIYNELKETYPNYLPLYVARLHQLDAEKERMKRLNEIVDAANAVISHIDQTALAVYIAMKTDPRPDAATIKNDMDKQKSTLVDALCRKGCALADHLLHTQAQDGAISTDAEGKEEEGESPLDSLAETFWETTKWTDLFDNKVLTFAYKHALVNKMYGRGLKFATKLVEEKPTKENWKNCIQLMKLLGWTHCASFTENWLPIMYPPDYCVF
UniProt O43715: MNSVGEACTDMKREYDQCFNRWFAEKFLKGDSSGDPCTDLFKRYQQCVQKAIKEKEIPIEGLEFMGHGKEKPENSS
UniProt Q15645: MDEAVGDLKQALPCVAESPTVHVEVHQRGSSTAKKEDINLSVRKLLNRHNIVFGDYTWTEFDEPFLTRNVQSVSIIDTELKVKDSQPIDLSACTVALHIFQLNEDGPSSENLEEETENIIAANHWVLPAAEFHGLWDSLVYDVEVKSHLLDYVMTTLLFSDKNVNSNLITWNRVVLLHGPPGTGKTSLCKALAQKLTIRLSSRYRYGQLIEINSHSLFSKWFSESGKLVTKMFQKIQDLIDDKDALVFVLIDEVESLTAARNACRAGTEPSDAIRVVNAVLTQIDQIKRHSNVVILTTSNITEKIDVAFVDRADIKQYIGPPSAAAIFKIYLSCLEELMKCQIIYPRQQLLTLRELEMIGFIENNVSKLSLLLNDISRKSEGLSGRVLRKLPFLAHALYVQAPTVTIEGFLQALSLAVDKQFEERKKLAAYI
UniProt O75157: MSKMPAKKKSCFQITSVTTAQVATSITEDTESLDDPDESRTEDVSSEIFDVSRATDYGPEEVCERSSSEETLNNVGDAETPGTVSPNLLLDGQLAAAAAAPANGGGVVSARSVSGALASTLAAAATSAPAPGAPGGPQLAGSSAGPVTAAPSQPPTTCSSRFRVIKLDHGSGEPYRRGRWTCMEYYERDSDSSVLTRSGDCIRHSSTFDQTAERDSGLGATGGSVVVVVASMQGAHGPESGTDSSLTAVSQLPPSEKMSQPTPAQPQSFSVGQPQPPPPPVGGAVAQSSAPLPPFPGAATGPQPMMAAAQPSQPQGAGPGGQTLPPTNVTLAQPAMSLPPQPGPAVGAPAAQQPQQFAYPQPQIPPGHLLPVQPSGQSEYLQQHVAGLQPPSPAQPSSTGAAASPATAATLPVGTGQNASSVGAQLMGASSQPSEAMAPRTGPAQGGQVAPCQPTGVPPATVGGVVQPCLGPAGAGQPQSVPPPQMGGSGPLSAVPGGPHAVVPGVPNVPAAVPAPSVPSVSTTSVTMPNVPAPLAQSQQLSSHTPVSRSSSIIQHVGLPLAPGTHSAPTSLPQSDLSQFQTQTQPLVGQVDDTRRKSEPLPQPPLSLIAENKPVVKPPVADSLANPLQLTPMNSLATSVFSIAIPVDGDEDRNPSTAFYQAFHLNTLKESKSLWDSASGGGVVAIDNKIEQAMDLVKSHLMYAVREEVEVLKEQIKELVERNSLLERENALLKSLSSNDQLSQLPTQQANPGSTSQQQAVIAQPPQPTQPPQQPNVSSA
UniProt Q9Y4A5, whole entry, looked up: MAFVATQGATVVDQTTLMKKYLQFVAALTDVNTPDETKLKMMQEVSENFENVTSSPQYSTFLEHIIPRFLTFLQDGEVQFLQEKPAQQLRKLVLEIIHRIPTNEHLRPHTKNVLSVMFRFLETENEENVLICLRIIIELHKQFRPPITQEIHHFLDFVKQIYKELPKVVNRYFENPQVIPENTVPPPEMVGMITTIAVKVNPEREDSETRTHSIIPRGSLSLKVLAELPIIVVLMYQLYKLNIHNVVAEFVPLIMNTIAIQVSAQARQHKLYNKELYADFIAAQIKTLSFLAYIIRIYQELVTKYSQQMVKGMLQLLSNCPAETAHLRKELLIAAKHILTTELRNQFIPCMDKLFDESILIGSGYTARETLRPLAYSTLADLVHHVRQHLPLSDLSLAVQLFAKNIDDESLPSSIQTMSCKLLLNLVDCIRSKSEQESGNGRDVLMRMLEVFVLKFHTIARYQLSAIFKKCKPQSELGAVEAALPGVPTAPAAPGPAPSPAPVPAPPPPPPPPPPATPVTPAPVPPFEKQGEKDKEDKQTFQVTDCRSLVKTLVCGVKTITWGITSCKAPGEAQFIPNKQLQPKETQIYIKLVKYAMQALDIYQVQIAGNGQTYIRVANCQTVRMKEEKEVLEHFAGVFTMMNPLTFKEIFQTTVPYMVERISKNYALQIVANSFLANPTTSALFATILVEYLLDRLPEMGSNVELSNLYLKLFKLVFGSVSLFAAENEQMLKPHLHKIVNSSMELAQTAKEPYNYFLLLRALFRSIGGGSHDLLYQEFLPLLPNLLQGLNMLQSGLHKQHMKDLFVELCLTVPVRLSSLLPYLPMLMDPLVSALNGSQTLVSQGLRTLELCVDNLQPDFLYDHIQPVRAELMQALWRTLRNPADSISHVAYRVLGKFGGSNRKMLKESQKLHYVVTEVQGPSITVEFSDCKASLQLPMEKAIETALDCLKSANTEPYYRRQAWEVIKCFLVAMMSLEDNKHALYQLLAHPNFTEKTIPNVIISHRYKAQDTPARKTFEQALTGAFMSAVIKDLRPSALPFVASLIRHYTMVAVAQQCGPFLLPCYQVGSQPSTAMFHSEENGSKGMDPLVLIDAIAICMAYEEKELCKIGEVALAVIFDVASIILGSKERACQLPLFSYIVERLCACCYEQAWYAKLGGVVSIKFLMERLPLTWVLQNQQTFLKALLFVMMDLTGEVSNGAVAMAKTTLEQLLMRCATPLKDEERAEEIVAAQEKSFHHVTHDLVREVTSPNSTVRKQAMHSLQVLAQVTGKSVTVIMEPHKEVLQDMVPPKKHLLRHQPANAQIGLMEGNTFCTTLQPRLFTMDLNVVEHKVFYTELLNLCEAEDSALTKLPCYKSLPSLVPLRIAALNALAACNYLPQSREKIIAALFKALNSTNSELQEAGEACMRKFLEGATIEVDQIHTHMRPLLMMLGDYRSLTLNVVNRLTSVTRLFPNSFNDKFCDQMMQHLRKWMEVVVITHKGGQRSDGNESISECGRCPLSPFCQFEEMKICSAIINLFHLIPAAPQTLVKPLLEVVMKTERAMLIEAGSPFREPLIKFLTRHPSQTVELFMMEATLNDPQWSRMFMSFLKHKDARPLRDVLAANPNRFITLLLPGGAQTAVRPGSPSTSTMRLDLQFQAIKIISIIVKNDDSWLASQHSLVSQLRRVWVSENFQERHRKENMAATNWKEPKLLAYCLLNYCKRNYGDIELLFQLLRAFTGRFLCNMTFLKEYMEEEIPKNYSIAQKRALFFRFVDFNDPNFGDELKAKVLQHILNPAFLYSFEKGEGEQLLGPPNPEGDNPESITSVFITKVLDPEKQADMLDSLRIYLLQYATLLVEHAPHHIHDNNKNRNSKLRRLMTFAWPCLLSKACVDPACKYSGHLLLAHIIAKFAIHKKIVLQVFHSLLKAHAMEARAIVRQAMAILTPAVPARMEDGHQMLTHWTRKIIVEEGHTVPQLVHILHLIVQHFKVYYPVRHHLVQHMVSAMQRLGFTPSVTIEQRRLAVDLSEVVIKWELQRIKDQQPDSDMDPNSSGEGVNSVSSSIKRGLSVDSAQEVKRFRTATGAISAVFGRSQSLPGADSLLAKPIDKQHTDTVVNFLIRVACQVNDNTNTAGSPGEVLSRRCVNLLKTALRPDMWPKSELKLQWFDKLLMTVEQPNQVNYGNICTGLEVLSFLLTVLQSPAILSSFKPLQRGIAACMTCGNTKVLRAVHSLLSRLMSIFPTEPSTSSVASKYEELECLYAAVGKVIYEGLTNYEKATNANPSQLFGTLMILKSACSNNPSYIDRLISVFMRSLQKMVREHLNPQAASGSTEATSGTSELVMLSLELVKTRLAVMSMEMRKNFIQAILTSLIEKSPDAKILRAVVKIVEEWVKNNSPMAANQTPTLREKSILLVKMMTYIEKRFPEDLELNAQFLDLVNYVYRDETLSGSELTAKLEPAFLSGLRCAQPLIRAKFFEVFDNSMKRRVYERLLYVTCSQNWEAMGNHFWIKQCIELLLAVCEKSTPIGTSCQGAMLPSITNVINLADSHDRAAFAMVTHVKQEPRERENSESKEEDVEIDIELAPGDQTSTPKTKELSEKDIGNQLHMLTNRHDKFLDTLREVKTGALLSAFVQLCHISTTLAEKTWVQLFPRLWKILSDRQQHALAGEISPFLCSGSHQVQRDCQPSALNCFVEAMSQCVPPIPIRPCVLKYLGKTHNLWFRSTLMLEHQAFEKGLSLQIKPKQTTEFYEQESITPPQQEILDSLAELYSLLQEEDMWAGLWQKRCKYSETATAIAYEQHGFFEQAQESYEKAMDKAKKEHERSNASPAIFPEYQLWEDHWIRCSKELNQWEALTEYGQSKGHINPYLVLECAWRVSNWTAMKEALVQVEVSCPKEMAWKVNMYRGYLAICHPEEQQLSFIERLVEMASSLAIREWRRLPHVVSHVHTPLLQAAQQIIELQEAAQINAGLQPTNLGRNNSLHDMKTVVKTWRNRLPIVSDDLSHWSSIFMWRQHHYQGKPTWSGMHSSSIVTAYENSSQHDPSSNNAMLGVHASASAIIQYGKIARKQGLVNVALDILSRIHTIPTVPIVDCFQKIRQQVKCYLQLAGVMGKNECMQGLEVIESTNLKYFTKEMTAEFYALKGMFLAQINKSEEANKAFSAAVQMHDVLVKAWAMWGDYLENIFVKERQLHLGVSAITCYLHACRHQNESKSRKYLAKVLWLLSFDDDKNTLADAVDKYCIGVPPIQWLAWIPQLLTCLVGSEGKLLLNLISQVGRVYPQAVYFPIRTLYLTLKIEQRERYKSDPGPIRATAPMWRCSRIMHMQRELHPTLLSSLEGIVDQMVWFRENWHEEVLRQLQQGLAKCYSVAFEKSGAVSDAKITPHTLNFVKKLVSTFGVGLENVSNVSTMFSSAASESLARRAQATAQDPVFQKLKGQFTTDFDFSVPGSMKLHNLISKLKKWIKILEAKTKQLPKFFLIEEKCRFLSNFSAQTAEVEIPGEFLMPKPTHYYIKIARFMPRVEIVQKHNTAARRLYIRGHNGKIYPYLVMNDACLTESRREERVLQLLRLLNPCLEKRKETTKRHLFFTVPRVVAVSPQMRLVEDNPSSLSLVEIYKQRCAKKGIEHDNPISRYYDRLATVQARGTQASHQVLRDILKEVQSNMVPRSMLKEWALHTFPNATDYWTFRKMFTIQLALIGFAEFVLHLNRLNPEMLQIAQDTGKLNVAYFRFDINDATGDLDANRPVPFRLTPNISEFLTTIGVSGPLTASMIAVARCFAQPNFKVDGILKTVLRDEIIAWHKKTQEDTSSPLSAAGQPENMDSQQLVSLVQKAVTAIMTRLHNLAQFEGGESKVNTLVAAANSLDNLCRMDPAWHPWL

compound: C1=CC(=CC=C1C2=NC3=C(N2)C=C(C=C3)C(=O)N)OC4=CC=C(C=C4)Cl; test: log2 fold change, soluble protein after heating vs DMSO (PISA); higher = thermal stabilisation; K562 cells, 10 uM, 30 min; active = over 0.2 and 3.5 SD of the protein, either way, in both replicates (recomputed)
Summary of the method: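 For each measurement, 10 μM compound was applied for 30 min to K562 cells at 2×10^6 cells/mL. Aliquots were heated for 3 min across 48°C-58°C, pooled, and extracted in PBS with 0.5% NP-40 at 4°C; the supernatant after 21,000xg for 90 min was soluble protein. This was quantified by TMTpro 16plex LC-MS/MS with channel sums equalised, and thermal stability was reported relative to control samples from duplicates, on a log2 fold-change scale.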

log2 fold change, inactive:
TRIM25 (UniProt Q14258) -0.018
TOMM34 (UniProt Q15785) -0.009
TRIP11 (UniProt Q15643) 0.001
TRIM24 (UniProt O15164) -0.045
TPP2 (UniProt P29144) -0.03
TSEN34 (UniProt Q9BSV6) 0.034
TRIAP1 (UniProt O43715) 0.124
TP53RK (UniProt Q96S44) 0.018
TRIP13 (UniProt Q15645) 0.02
TRIO (UniProt O75962) -0.013
TSC22D2 (UniProt O75157) -0.038
TRAPPC10 (UniProt P48553) -0.028
TRMT112 (UniProt Q9UI30) 0.034
TOMM70 (UniProt O94826) -0.016
TOMM40 (UniProt O96008) 0.018
TOP2B (UniProt Q02880) 0.214
TNIK isoform 6 (UniProt Q9UKE5) -0.014
TOR4A (UniProt Q9NXH8) -0.005
TOP1 (UniProt P11387) 0.032
TPM4, A0A2R8Y5V9 0
TRAF6 (UniProt Q9Y4K3) 0.009
TRRAP (UniProt Q9Y4A5) 0.031
TOP3B (UniProt O95985) 0.018
TNFRSF1B (UniProt P20333) 0.035

For reference, some entries already given.
log2 fold change, inactive:
TOMM70 (UniProt O94826) -0.016
TOMM40 (UniProt O96008) 0.018
